These are yes or no findings as the source states them, for the method shown. Binding seen in cells or lysates may run through a third protein. Some entries that bind do so weakly or less than the wild type.
Biological target: KSHV pORF55, wild type (FLAG-ORF55-GFP) (Kaposi's sarcoma-associated herpesvirus (KSHV)) (UniProt F5H9W9)
Test: co-IP; HEK293T cells co-transfected with HA-ORF42 and FLAG-ORF55-GFP or the mutants, lysed 24 h after transfection in 150 mM NaCl, 50 mM Tris-HCl pH 7.4, 1% Triton X-100, 1 mM EDTA; precipitated with anti-FLAG beads at 4°C for 4 h; immunoblotting

Amino acid sequences for entries named in this document (tags omitted).
UniProt F5H9W9: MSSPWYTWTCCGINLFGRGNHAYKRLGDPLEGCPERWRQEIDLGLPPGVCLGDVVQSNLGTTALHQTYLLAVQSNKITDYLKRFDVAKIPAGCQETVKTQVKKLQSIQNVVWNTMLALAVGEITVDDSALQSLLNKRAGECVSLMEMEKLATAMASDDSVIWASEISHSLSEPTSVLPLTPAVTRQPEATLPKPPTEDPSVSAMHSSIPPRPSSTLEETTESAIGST
UniProt F5HAI6: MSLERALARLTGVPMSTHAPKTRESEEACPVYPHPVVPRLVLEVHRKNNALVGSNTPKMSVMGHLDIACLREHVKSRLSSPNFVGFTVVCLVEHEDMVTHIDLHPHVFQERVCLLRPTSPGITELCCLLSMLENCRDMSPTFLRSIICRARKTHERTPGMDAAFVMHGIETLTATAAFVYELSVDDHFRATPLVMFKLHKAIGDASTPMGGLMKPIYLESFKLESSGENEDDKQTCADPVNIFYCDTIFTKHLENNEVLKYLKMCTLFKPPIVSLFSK

Substance: KSHV pORF42 (HA-ORF42) (from UniProt F5HAI6 1-278)
- binding: binds

From PMC11051623
